Data reported in paper PMC6072111.
Results are given in words; binding and its absence hold for the method and conditions named. Binding seen in cells or lysates may run through a third protein.

Biological target: MUT-16 (constructs of the self co-immunoprecipitation not stated) (C. elegans) (UniProt O62011)
Assay: co-IP; MUT-16 with itself; told in the discussion only, no data shown, constructs not stated

B1: MUT-16 (constructs of the self co-immunoprecipitation not stated) (protein, UniProt O62011 1-1054)
chain: MSESDDDYPELDISDQYIDPLGIVVGPPPASYTETDREETPMQNRTEDDTNSYGNSSGEHDYDSYLDSGDDDFDVDAYYANDNMDEPPPETIPDNLIQNVIGRNDNADYDFSDASNPEIMKRDLQLFLSSSLLSNPLKFRSGYSSDELDDCLKSCMGYSLQVTAVLLLPPEIISQLPNDSKTEHAHALVRGGWLQSKEGAFFPVISDSERETVVSLMNGSEEQHKRQERKKKEADTFESEEKEIRTLLTFNMIAELLMAVRNEYSIRSVKYQILSTAYTNMVTGAAHANIFRKYKDILQLDPEKLWNNDWFKEYTNRGTLKKFLTTARFSEIVVSQANGKTVELYFRADDEGNRPVVLFTDEHIADVRNKWKTGNQRNQNYGSQGNYRAGGQRSDDRRGPQQRRNVIVPDPNYQPSTFAGGISNNADDDGSLQPTTSSHFNRNTDRSTSRPPRAPTSPVNRVMETDPLMGQGTSSGAPQRSAIPNPFGGAPALSRSTITNGNRGPSYGDRGERVQDVGDTTSDSEITSEGSYSDEDPEQKEIKRQRRKDKLKKKQERELRSREKHTKSKQQPPSKIETRFNTYKKKSESSATDTSNTPPVDTVNVALPTPVVESSSTTAAPSIPVSTRPEVVVPPENPAPLREVGNFYSKSNHDEDRRNVQLPFTPADTHKPIKVAPKEPVRNPLLKERPSANGFINRRLPSHPAPPPVNQSQPANQPMQTAVYQNSHPGAPYIPQQPTYQPQLPVQQPQPHQYAPQPIHHQQPIHQPMHGQQYPPVNQQQPIYQQPAPQYPPYNSIQNNPQHGPSPFNYSQVPQPAYNHVGQQPSHMSNQPHINQNGYQNSYNPNQGPTSSDPNYGCNPQFNHYGSRSVYHEDHSSQRRRSPDQFPPNPPEYDPHGNFKLADYERDRMTVGYSQNPHQFDHHGSHMPHQSQPQGYDNFNGNSAPYFNKNGGQSNHQPEAQRSFSVLSSNRQPSNRELIFQDGIEKELRDIILRYRSMNLTVLTVQELRTEVSRRPAIPRYIDIVQYIRDSSSVAIVERGDIEPYVVLKDDIRN
  binding: no binding
